Measured values from patent publication US9951039B2, “Pyrimidines for treatment of bacterial infections” (The Hong Kong Polytechnic University, priority 2016, dated 2018).
Some of these results come from one statement about several compounds together.

System: S. aureus strain ATCC29213
Assay: MIC, broth microdilution antimicrobial susceptibility test (CLSI)
Format: cell-based
Settings: E. coli ATCC 25922 MIC over S. aureus 29213 MIC
Source text: This example illustrates the evaluation of 2,4,6-trisubstituted pyrimidines 14 for their antimicrobial activities against the Gram positive S. aureus strain ATCC29213 and the Gram negative E. coli strain ATCC25922 by measuring their MIC, which is the lowest concentration of an antimicrobial agent that prevents visible growth of a microorganism in a broth dilution susceptibility test according to the standard method approved by the Clinical and Laboratory Standards Institute (CLSI) guidelines.^21
Procedure of Antimicrobial susceptibility test: The MIC value of compounds was measured in the antimicrobial susceptibility test using the broth microdilution procedure in accordance with the CLSI guidelines.^21 Cation-adjusted Mueller Hinton broth (CA-MHB) was used for all the S. aureus strains in the assay. Cells in exponential phase of growth were diluted to approximately 5×10^5 cfu/mL. Stock solutions of each compound were freshly dissolved in dimethyl sulfoxide (DMSO). Then, serial dilutions of each compound in CA-MHB medium were added into 96-well microplate. The final percentage of DMSO in the assay was 1%. Control experiments were performed with 1% DMSO instead of the compound solution. After being incubated at 37° C. for 18 h, OD600 value of cells was measured on a microplate reader and the percentage of bacterial cell inhibition with respect to controls was calculated. The MIC value was defined as the lowest compound concentration at which the growth of bacteria was inhibited by ≥90%. Three independent assays were performed for each compound.

| SMILES | MIC^c/MIC^b: Selectivity index |
| --- | --- |
| CCC(CC)c1cc(CCN2CCCN(CCc3ccc(C(F)(F)F)cc3)CC2)nc(-c2ccncc2)n1 [Compound 14av_amine20, 1-(2-(6-(pentan-3-yl)-2-(pyridin-4-yl)pyrimidin-4-yl)ethyl)-4-(4-(trifluoromethyl)phenethyl)-1,4-diazepane] | > 15 |
| CC(C)c1ccc(CN2CCCN(CCc3cc(-c4ccccc4)nc(-c4ccncc4)n3)CC2)cc1 [Compound 14dv_amine06, 1-(4-isopropylbenzyl)-4-(2-(6-phenyl-2-(pyridin-4-yl)pyrimidin-4-yl)ethyl)-1,4-diazepane] | > 15 |
| CC(C)(C)c1ccc(CN2CCCN(CCc3cc(-c4ccccc4)nc(-c4ccncc4)n3)CC2)cc1 [Compound 14dv_amine07, 1-(4-(tert-butyl)benzyl)-4-(2-(6-phenyl-2-(pyridin-4-yl)pyrimidin-4-yl)ethyl)-1,4-diazepane] | > 15 |
| Brc1ccc(CN2CCCN(CCc3cc(-c4ccccc4)nc(-c4ccncc4)n3)CC2)cc1 [Compound 14dv_amine08, 1-(4-bromobenzyl)-4-(2-(6-phenyl-2-(pyridin-4-yl)pyrimidin-4-yl)ethyl)-1,4-diazepane] | > 15 |
| FC(F)(F)c1ccc(CN2CCCN(CCc3cc(-c4ccccc4)nc(-c4ccncc4)n3)CC2)cc1 [Compound 14dv_amine16, 1-(2-(6-phenyl-2-(pyridin-4-yl)pyrimidin-4-yl)ethyl)-4-(4-(trifluoromethyl)benzyl)-1,4-diazepane] | > 15 |
| FC(F)(F)c1ccc(CCN2CCCN(CCc3cc(-c4ccccc4)nc(-c4ccncc4)n3)CC2)cc1 [Compound 14dv_amine20, 1-(2-(6-phenyl-2-(pyridin-4-yl)pyrimidin-4-yl)ethyl)-4-(4-(trifluoromethyl)phenethyl)-1,4-diazepane] | > 15 |
